The target in experiment [1] is biotinamidocaproyl-Bovine Serum Albumin (bovine) (UniProt P02769). The experiment is described as follows: AFM dynamic force spectroscopy.
The target of experiment [2] is AP-IGF1R biotinylated by co-expressed BirA-ER (human type 1 insulin-like growth factor receptor fused to the acceptor peptide tag), on COS7 cells (human) (UniProt P08069). In words: fluorescence microscopy of live COS7 cells, Alexa Fluor 555 conjugate.
Experiment [3] shares this target. In words: fluorescence microscopy of live COS7 cells, Alexa Fluor 555 conjugate, 0.4 µM, 4° C.

The chains behind the UniProt entries cited, without tags or fusion partners. Where a name states a change or a piece, a line headed by the entry shows the natural chain unless it says otherwise. Residues count along the entry.
UniProt P02769, residues 25-607: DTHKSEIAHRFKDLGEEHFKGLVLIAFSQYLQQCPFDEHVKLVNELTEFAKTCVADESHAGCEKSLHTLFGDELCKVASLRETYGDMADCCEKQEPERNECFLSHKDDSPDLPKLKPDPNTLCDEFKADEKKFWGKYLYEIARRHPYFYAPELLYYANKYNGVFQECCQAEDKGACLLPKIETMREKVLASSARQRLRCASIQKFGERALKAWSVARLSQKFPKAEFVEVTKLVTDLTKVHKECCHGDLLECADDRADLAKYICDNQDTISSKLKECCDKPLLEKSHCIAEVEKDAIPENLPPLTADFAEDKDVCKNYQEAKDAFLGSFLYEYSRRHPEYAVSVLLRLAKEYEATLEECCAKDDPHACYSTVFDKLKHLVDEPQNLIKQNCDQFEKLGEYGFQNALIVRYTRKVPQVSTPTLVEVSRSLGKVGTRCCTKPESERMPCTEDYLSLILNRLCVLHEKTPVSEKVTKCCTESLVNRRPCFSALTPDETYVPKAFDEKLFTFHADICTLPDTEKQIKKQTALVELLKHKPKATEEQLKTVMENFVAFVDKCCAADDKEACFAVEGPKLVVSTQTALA
UniProt P08069: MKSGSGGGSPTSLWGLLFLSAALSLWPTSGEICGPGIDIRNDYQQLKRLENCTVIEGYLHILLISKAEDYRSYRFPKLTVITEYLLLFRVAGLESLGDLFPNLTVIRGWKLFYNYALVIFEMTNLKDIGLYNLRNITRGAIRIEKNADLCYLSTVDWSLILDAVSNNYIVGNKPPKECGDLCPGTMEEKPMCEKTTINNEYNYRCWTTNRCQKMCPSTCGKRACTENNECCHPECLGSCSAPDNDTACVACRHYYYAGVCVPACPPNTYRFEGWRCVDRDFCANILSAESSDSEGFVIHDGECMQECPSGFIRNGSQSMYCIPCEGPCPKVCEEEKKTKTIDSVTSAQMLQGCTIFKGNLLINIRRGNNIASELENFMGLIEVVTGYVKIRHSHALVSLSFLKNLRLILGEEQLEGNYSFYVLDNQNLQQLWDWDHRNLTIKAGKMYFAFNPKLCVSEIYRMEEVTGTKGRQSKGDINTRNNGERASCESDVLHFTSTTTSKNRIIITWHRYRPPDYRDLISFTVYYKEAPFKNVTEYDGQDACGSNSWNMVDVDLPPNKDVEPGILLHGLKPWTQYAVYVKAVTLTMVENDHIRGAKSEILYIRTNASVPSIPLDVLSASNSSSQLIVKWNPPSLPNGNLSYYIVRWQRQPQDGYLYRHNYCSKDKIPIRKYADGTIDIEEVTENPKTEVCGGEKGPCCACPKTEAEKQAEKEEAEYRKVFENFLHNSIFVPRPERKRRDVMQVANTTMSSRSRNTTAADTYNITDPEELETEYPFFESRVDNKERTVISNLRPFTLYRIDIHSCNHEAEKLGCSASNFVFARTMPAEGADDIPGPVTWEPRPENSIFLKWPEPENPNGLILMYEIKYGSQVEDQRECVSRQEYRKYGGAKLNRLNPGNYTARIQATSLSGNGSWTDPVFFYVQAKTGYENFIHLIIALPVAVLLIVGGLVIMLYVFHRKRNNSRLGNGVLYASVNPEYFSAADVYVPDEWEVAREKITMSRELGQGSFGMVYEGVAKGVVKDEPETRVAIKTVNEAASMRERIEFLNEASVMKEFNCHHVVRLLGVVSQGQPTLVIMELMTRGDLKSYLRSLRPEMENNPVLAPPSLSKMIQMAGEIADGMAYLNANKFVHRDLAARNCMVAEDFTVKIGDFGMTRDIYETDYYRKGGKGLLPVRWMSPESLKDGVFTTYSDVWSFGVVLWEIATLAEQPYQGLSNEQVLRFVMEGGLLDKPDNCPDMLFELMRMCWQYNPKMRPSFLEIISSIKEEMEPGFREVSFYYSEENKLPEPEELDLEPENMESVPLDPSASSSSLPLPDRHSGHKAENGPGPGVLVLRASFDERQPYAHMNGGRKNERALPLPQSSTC
UniProt P22629: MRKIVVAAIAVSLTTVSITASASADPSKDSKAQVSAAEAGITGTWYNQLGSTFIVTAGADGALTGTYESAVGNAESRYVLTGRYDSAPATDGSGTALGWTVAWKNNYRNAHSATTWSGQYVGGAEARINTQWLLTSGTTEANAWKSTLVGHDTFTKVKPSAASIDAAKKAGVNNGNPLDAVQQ

Results are given in words; binding and its absence hold for the method and conditions named. Some results given as binding are weak or reduced against the parent protein; the word gives no strength.

For “Streptavidin (core streptavidin with His6 at the C-terminus) (from UniProt P22629 37-163)”, the binding entry in experiment [1] and in experiment [2] was “binds” throughout.

With “Traptavidin (S52G R53D mutant of core streptavidin with C-terminal His6 tag) (from UniProt P22629 37-163)”, the binding result in experiment [3], in experiment [1] and in experiment [2] was “binds” in each case.

For the origin of these results see patent publication US20120214970A1.
